Laboratory results published in PubChem BioAssay AID1671190 (National Center for Advancing Translational Sciences (NCATS), 2021).
Out of some 580,000 compounds screened, about 6,100 (1.1%) were called active. Inconclusive means that the source gave no clear call. Such entries were picked first, then a sample of the others. The call rests on the fitted dose curve; in most records, active means well fitted inhibition curve with a large enough effect; inconclusive means small, poorly fitted or top-dose-only effect, or another doubt; inactive means no such curve, though single readings can be large or run the other way. A potency beside an inconclusive call is a rough fit, not a confirmed value.

The chains behind the UniProt entries cited, without tags or fusion partners. Where a name states a change or a piece, a line headed by the entry shows the natural chain unless it says otherwise.
UniProt P18054: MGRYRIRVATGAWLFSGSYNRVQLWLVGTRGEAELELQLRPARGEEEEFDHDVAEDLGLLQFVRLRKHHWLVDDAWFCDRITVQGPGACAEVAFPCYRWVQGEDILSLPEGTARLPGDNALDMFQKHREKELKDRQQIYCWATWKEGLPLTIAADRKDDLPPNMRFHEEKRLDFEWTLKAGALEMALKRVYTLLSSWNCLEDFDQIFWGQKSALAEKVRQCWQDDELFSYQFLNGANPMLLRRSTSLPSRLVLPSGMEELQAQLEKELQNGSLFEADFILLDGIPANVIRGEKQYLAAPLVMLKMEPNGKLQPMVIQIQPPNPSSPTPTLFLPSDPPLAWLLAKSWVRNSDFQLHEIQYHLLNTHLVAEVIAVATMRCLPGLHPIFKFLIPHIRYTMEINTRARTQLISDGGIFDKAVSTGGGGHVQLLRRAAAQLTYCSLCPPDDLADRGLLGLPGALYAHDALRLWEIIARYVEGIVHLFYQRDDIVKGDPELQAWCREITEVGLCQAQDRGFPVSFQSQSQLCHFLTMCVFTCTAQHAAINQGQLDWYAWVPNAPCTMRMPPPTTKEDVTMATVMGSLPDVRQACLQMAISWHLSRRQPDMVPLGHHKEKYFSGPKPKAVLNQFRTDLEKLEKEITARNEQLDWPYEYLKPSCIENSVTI

Each compound was assayed against Polyunsaturated fatty acid lipoxygenase ALOX12 (Homo sapiens) (UniProt P18054) (assay: Primary qHTS assay for inhibitors of human arachidonate 12S-lipoxygenase (ALOX12): Round 2). Settings: purified 12hLO, xylenol orange hydroperoxide absorbance; series mostly up to 108 µM.
Summary of the method: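 Hydroperoxide product was detected by ferrous iron/xylenol orange as the 573 to 405 nm absorbance ratio. Arachidonic acid at 40 uM (final) was turned over for 30 min at room temperature by 150 nM human 12hLO, pH 7.0 Hepes buffer, after 15 min compound preincubation.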
Potency means the concentration at half of the fitted maximal effect.

Structure (SMILES) | Potency
O=c1sc(Nc2ccccc2)nc2ccsc12 | inconclusive: 79.4 µM [inhibitor, partial curve, poor fit]
CCCCN(CCCNC(=O)c1cc(Nc2cccc(SC)c2)nc2ccccc12)Cc1ccccc1 | inconclusive: 56.2 µM [inhibitor, partial curve, poor fit]
COc1cc(OC)c(NC(=O)NC(C(=O)N2CCc3ccccc32)C(C)C)cc1Cl (stereo not drawn) | inactive
N#Cc1c(SCc2ccccc2)sc(C(=O)c2ccccc2)c1N | inconclusive: 3.98 µM [inhibitor, full curve, poor fit]
COCC(=O)NC[C@@H]1C=C(C)[C@H](Cc2nc3ccc(F)cc3[nH]2)C[C@H]1C(C)C | inactive
CC(=O)c1ccc(NC(=O)O[C@@H]2CO[C@H]3[C@@H]2OC[C@@H]3NC(=O)NCc2ccccc2)cc1 | inactive
COc1ccc(Cn2c(C3CCN(C(=O)c4cccc(F)c4)CC3)n[nH]c2=O)cc1 | inconclusive: 56.2 µM [inhibitor, single point]
O=C1c2ccc(Cl)cc2S(=O)(=O)c2cccc(C(=O)N3CCN(c4ncc(Br)cn4)CC3)c21 | inconclusive: 7.08 µM [inhibitor, partial curve, poor fit]
CCN(CC)CCN(C(=O)c1ccc(C(=O)c2ccccc2)cc1)c1nc2ccc(OC)cc2s1 | inactive
O=C(O)c1cn(-c2ccccc2)nc1-c1ccc(F)cc1 | inactive
CCOc1ccc(CN2CCN(Cc3[nH]c4ccc(OC)cc4c3C)CC2CCO)cc1 (stereo not drawn) | inconclusive: 50.1 µM [inhibitor, partial curve, poor fit]
CCCc1cc(C(=O)NNC(=S)NC(C)c2ccccc2)cs1 (stereo not drawn) | inconclusive: 44.7 µM [inhibitor, partial curve, poor fit]
Cc1ccc(CN(C)CC(=O)Nc2ccc(C(F)(F)F)cc2)cc1 | inconclusive: 44.7 µM [inhibitor, single point]
CCCCCC(=O)N1CC[C@@H](CC(=O)N(C)CC#N)[C@@H](CC)C1 | inconclusive: 31.6 µM [inhibitor, full curve]
Cc1cccc(-c2cc(Nc3ccccc3)nc(C)n2)c1 | inconclusive: 20 µM [inhibitor, full curve]
COc1ccc(-c2cn3c(n2)CO[C@@H](CNCc2ccc(Cl)cc2)C3)cc1 | active: 8.91 µM
CCCS(=O)(=O)N1CCN(Cc2cc(=O)n3nc(-c4ccc(OC)cc4)sc3n2)CC1 | inconclusive: 35.5 µM [inhibitor, partial curve, poor fit]
Cc1ccc(-n2c(SCc3ccccc3F)nc3[nH]ncc3c2=O)cc1Cl | inconclusive: 100 µM [inhibitor, partial curve, poor fit]

Some of the entries above, reformatted.
Structure (SMILES)	Potency
Cc1ccc(CN(C)CC(=O)Nc2ccc(C(F)(F)F)cc2)cc1	inconclusive: 44.7 µM [inhibitor, single point]
CCCCCC(=O)N1CC[C@@H](CC(=O)N(C)CC#N)[C@@H](CC)C1	inconclusive: 31.6 µM [inhibitor, full curve]
Cc1cccc(-c2cc(Nc3ccccc3)nc(C)n2)c1	inconclusive: 20 µM [inhibitor, full curve]
COc1ccc(-c2cn3c(n2)CO[C@@H](CNCc2ccc(Cl)cc2)C3)cc1	active: 8.91 µM
